B1: P01863 (protein, UniProt P01863 1-330, looked up)
chain: AKTTAPSVYPLAPVCGDTTGSSVTLGCLVKGYFPEPVTLTWNSGSLSSGVHTFPAVLQSDLYTLSSSVTVTSSTWPSQSITCNVAHPASSTKVDKKIEPRGPTIKPCPPCKCPAPNLLGGPSVFIFPPKIKDVLMISLSPIVTCVVVDVSEDDPDVQISWFVNNVEVHTAQTQTHREDYNSTLRVVSALPIQHQDWMSGKEFKCKVNNKDLPAPIERTISKPKGSVRAPQVYVLPPPEEEMTKKQVTLTCMVTDFMPEDIYVEWTNNGKTELNYKNTEPVLDSDGSYFMYSKLRVEKKNWVERNSYSCSVVHEGLHNHHTTKSFSRTPGK
modifications: full-length
B2: P50247 (protein, UniProt P50247 1-432, looked up)
chain: MSDKLPYKVADIGLAAWGRKALDIAENEMPGLMRMREMYSASKPLKGARIAGCLHMTVETAVLIETLVALGAEVRWSSCNIFSTQDHAAAAIAKAGIPVFAWKGETDEEYLWCIEQTLHFKDGPLNMILDDGGDLTNLIHTKYPQLLSGIRGISEETTTGVHNLYKMMSNGILKVPAINVNDSVTKSKFDNLYGCRESLIDGIKRATDVMIAGKVAVVAGYGDVGKGCAQALRGFGARVIITEIDPINALQAAMEGYEVTTMDEACKEGNIFVTTTGCVDIILGRHFEQMKDDAIVCNIGHFDVEIDVKWLNENAVEKVNIKPQVDRYWLKNGRRIILLAEGRLVNLGCAMGHPSFVMSNSFTNQVMAQIELWTHPDKYPVGVHFLPKKLDEAVAEAHLGKLNVKLTKLTEKQAQYLGMPINGPFKPDHYRY
modifications: full-length
B3: P01867 (protein, UniProt P01867 1-404, looked up)
chain: KTTPPSVYPLAPGCGDTTGSSVTLGCLVKGYFPESVTVTWNSGSLSSSVHTFPALLQSGLYTMSSSVTVPSSTWPSQTVTCSVAHPASSTTVDKKLEPSGPISTINPCPPCKECHKCPAPNLEGGPSVFIFPPNIKDVLMISLTPKVTCVVVDVSEDDPDVQISWFVNNVEVHTAQTQTHREDYNSTIRVVSTLPIQHQDWMSGKEFKCKVNNKDLPSPIERTISKIKGLVRAPQVYILPPPAEQLSRKDVSLTCLVVGFNPGDISVEWTSNGHTEENYKDTAPVLDSDGSYFIYSKLNMKTSKWEKTDSFSCNVRHEGLKNYYLKKTISRSPGLDLDDICAEAKDGELDGLWTTITIFISLFLLSVCYSASVTLFKVKWIFSSVVELKQKISPDYRNMIGQGA
modifications: full-length

Tested on: CA19-9 modified proteins
Experiment: CA19-9 IP/MS (iTRAQ) of organoid conditioned media after Dox treatment
Design: species or system mouse
Conditions: CA19-9 IP/MS relative abundance; A217 (genetic negative) organoid conditioned media, 0H (before treatment), IP with NS19-9; reference channel = 1

| Molecule | 17 0H NS19 |
| --- | --- |
| B1 | 1 |
| B2 | 1 |
| B3 | 1 |

Same assay, conditions: CA19-9 IP/MS relative abundance; A217 (genetic negative) organoid conditioned media, after 8 hours, IP with 5B1

| Molecule | 17 8H 5B1 |
| --- | --- |
| B1 | 0.46 |
| B2 | 7.244 |
| B3 | 0.439 |

Same assay, conditions: CA19-9 IP/MS relative abundance; A217 (genetic negative) organoid conditioned media, after 8 hours, IP with NS19-9

| Molecule | 17 8H NS19 |
| --- | --- |
| B1 | 0.984 |
| B2 | 0.536 |
| B3 | 1.002 |

Same assay, conditions: CA19-9 IP/MS relative abundance; A220 (C;R^LSL;F) organoid conditioned media, 0H (before treatment), IP with 5B1

| Molecule | 20 0H 5B1 |
| --- | --- |
| B1 | 0.417 |
| B2 | 5.616 |
| B3 | 0.388 |

Source: patent US12378320B2, “Methods for treating pancreatitis” (Cold Spring Harbor Laboratory, priority 2018, dated 2025)
